This passage reports binding results from article PMC8534408.

These are yes or no findings as the source states them, for the method shown. In cells and extracts the contact can be indirect. Here binding means that the protein was enriched with, or labelled near, the bait; the list need not be complete. For part of these data: A no says only that the protein was not detected with the bait.

For assay [1], the target named is SH.SZT2WT (STREP-HA tagged seizure threshold 2, wild type) (human). Kind of assay: condition: only cells restimulated with amino acids and growth factors for 20 min; affinity purification with mass spectrometry; as a1, SH.SZT2WT eluates of cells restimulated with amino acids and growth factors for 20 min (STI) set against starved cells (STA); p-value <= 0.05 and fold-change >= ….

For assay [2] the target is unchanged. Kind of assay: affinity purification with mass spectrometry; SH.SZT2WT or SH.GFP bait from cleared lysate of tetracycline-induced HEK293 Flp-In T-Rex cells held on Strep-Tactin Sepharose, 1 h, 4 °C, 50 mM HEPES pH 8.0, 150 mM NaCl, 5 mM EDTA, 0.5% NP-40, 50 mM NaF; eluted with 2.5 mM D-biotin; LC-MS/MS; cells starved of amino acids and growth factors for 1 h (STA) or restimulated for 20 min (STI); hits: p-value <= 0.05 and fold-change >= 5 over the GFP control.

B1: SH3GLB1 (protein, UniProt Q9Y371 1-365)
chain: MNIMDFNVKKLAADAGTFLSRAVQFTEEKLGQAEKTELDAHLENLLSKAECTKIWTEKIMKQTEVLLQPNPNARIEEFVYEKLDRKAPSRINNPELLGQYMIDAGTEFGPGTAYGNALIKCGETQKRIGTADRELIQTSALNFLTPLRNFIEGDYKTIAKERKLLQNKRLDLDAAKTRLKKAKAAETRNSSEQELRITQSEFDRQAEITRLLLEGISSTHAHHLRCLNDFVEAQMTYYAQCYQYMLDLQKQLGSFPSNYLSNNNQTSVTPVPSVLPNAIGSSAMASTSGLVITSPSNLSDLKECSGSRKARVLYDYDAANSTELSLLADEVITVFSVVGMDSDWLMGERGNQKGKVPITYLELLN
Consider B1, for which the binding entry in assay [1] is on record as “no binding”; in assay [2] it was “binds”.

B2: MTMR4 (protein, UniProt Q9NYA4 1-1195)
chain: MGEEGPPSLEYIQAKDLFPPKELVKEEENLQVPFTVLQGEGVEFLGRAADALIAISNYRLHIKFKDSVINVPLRMIDSVESRDMFQLHISCKDSKVVRCHFSTFKQCQEWLSRLSRATARPAKPEDLFAFAYHAWCLGLTEEDQHTHLCQPGEHIRCRQEAELARMGFDLQNVWRVSHINSNYKLCPSYPQKLLVPVWITDKELENVASFRSWKRIPVVVYRHLRNGAAIARCSQPEISWWGWRNADDEYLVTSIAKACALDPGTRATGGSLSTGNNDTSEACDADFDSSLTACSGVESTAAPQKLLILDARSYTAAVANRAKGGGCECEEYYPNCEVVFMGMANIHAIRNSFQYLRAVCSQMPDPSNWLSALESTKWLQHLSVMLKAAVLVANTVDREGRPVLVHCSDGWDRTPQIVALAKILLDPYYRTLEGFQVLVESDWLDFGHKFGDRCGHQENVEDQNEQCPVFLQWLDSVHQLLKQFPCLFEFNEAFLVKLVQHTYSCLYGTFLANNPCEREKRNIYKRTCSVWALLRAGNKNFHNFLYTPSSDMVLHPVCHVRALHLWTAVYLPASSPCTLGEENMDLYLSPVAQSQEFSGRSLDRLPKTRSMDDLLSACDTSSPLTRTSSDPNLNNHCQEVRVGLEPWHSNPEGSETSFVDSGVGGPQQTVGEVGLPPPLPSSQKDYLSNKPFKSHKSCSPSYKLLNTAVPREMKSNTSDPEIKVLEETKGPAPDPSAQDELGRTLDGIGEPPEHCPETEAVSALSKVISNKCDGVCNFPESSQNSPTGTPQQAQPDSMLGVPSKCVLDHSLSTVCNPPSAACQTPLDPSTDFLNQDPSGSVASISHQEQLSSVPDLTHGEEDIGKRGNNRNGQLLENPRFGKMPLELVRKPISQSQISEFSFLGSNWDSFQGMVTSFPSGEATPRRLLSYGCCSKRPNSKQMRATGPCFGGQWAQREGVKSPVCSSHSNGHCTGPGGKNQMWLSSHPKQVSSTKPVPLNCPSPVPPLYLDDDGLPFPTDVIQHRLRQIEAGYKQEVEQLRRQVRELQMRLDIRHCCAPPAEPPMDYEDDFTCLKESDGSDTEDFGSDHSEDCLSEASWEPVDKKETEVTRWVPDHMASHCYNCDCEFWLAKRRHHCRNCGNVFCAGCCHLKLPIPDQQLYDPVLVCNSCYEHIQVSRARELMSQQLKKPIATASS
In the case of B2, the binding entry is given as “no binding” in assay [1] and “binds” in assay [2].

B3: MTMR14 (protein, UniProt Q8NCE2 1-650)
chain: MAGARAAAAAASAGSSASSGNQPPQELGLGELLEEFSRTQYRAKDGSGTGGSKVERIEKRCLELFGRDYCFSVIPNTNGDICGHYPRHIVFLEYESSEKEKDTFESTVQVSKLQDLIHRSKMARCRGRFVCPVILFKGKHICRSATLAGWGELYGRSGYNYFFSGGADDAWADVEDVTEEDCALRSGDTHLFDKVRGYDIKLLRYLSVKYICDLMVENKKVKFGMNVTSSEKVDKAQRYADFTLLSIPYPGCEFFKEYKDRDYMAEGLIFNWKQDYVDAPLSIPDFLTHSLNIDWSQYQCWDLVQQTQNYLKLLLSLVNSDDDSGLLVHCISGWDRTPLFISLLRLSLWADGLIHTSLKPTEILYLTVAYDWFLFGHMLVDRLSKGEEIFFFCFNFLKHITSEEFSALKTQRRKSLPARDGGFTLEDICMLRRKDRGSTTSLGSDFSLVMESSPGATGSFTYEAVELVPAGAPTQAAWRKSHSSSPQSVLWNRPQPSEDRLPSQQGLAEARSSSSSSSNHSDNFFRMGSSPLEVPKPRSVDHPLPGSSLSTDYGSWQMVTGCGSIQERAVLHTDSSLPFSFPDELPNSCLLAALSDRETRLQEVRSAFLAAYSSTVGLRAVAPSPSGAIGGLLEQFARGVGLRSISSNAL
B3: the binding entry is “no binding” in assay [1] and “binds” in assay [2].
